Values quoted from earlier work, collected in US20240325458A1, “COMPOSITION FOR PRODUCING BILE ACIDS” (priority 2020, published 2024).
For at least one compound, name, drawing or mass did not settle the structure.

Tested on: Clostridioides difficile
Details: known [36, 40, 41]; cited from earlier work

| SMILES | inhibition of growth of Clostridioides difficile |
| --- | --- |
| C[C@H](CCC(=O)O)[C@H]1CC[C@H]2[C@@H]3CC[C@@H]4C[C@H](O)CC[C@]4(C)[C@H]3C[C@H](O)[C@]12C [DCA, deoxycholic acid] | inhibiting the growth |
| C[C@H](CCC(=O)O)[C@H]1CC[C@H]2[C@@H]3CC[C@@H]4C[C@H](O)CC[C@]4(C)[C@H]3CC[C@]12C [LCA, Lithocholic acid] | inhibiting the growth |
